This is an account of results in PubChem BioAssay AID662 (National Center for Advancing Translational Sciences (NCATS), 2007).

Each structure is given as a SMILES string. Values joined by “and” are separate entries in the source; they are usually repeats but may differ in a detail not shown here. Equal entries are not always repeated. The list shows a part of the results. These are further read-outs of the screen, such as a control signal, another cell line or another target. No call is given for them. Compounds called inactive in the main read-out are mostly missing here. Potencies come from curve fits of mixed quality, noted in brackets.

As a reminder, the AC50 is the concentration giving half of the maximal activity seen.

This experiment can be described thus: Cell signaling CRE-BLA (Fsk stim). The settings on record: CHO CRE-bla reporter (cAMP response element driving beta-lactamase), forskolin EC10, beta-lactamase ratio; measured here: 460 nm blue channel. The essentials:
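qHTS titration format; CRE-bla CHO reporter; stimulus EC10 NKH 477, a water-soluble forskolin. Read: CCF4 460/530 nm ratio. Potency expressed as AC50 for activators or inhibitors.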
As to `CC1=CS/C(=C(/C#N)C(=O)N2CCOCC2)N1c1ccccc1`, the half-maximal activity concentration (AC50) is 10 µM [rising, partial curve].

Take `Cn1c(=O)cc(SCC(=O)N2CCCC2)c2cc(Cl)ccc21`: the AC50 was 10 µM [falling, partial curve, poor fit].

With `COc1cc(C(=O)N2CCN(c3cc(Cl)ccc3Cl)CC2)cc(OC)c1OC`, the AC50 is 2.51 µM [rising, full curve].

`CSc1nc(N2CCN(CCO)CC2)c2sc3nc(-c4ccco4)c4c(c3c2n1)CCC4`: the AC50 is 2 µM [rising, full curve].

`COc1ccc(OC)c(NC(=O)CN2C(=O)C3(OCCCO3)c3ccccc32)c1`: the AC50 is 1.26 µM [falling, full curve, poor fit].

For `CC(C)CC1N=C2c3ccccc3N=C(SCc3cc(=O)n4ccccc4n3)N2C1=O` (centres undefined), the AC50 is 0.794 µM [rising, full curve].

As for `CCn1c2ccccc2c2nc3cc(OC)c(OC)cc3nc21`, the AC50 was 7.94 µM [rising, partial curve].

With `CNc1nc(-c2ccc(N(C)C)cc2)nc2ccccc12`, the AC50 is 12.6 µM [rising, partial curve].

For `CCOC(=O)c1[nH]cnc1C(=O)Nc1ccccn1`, the AC50 was 12.6 µM [rising, partial curve].

For the molecule `Cc1ccc2nc(-c3cccc(S(=O)(=O)N(C)C)c3)cn2c1`, the half-maximal activity concentration (AC50) was 10 µM [rising, partial curve, poor fit].

On to `CC1(C)CC(=O)C=C(Nc2ccc(S(N)(=O)=O)cc2)C1`, for which the AC50 was 0.00398 µM [falling, full curve].

For `COc1ccc(Oc2ncc3nc(C)c(=O)n(Cc4ccc(F)cc4)c3n2)cc1`, the concentration at half-maximal activity (AC50) is 7.94 µM [rising, partial curve].

For the molecule `COc1ccc(CC(C)N2CCN(c3ccccc3OC)CC2)cc1OC` (centres undefined), the AC50 was 5.01 µM [falling, partial curve].

Take `COc1ccc(C(=O)C(CN2CCOCC2)c2ccccc2)cc1F` (centres undefined): the AC50 was 7.94 µM [falling, partial curve].

Consider `O=C1Nc2ccc(I)cc2/C1=C/c1cc(Br)c(O)c(Br)c1`, for which the AC50 is 5.01 µM [falling, partial curve, poor fit] and 25.1 µM [falling, partial curve].

On to `CCc1cc2c(CN3CCN(C)CC3)cc(=O)oc2cc1O`, for which the AC50 is 12.6 µM [rising, partial curve].

As to `Cc1nc2ccccc2c2oc(C(=O)NCC3COc4ccccc4O3)cc12` (centres undefined), the half-maximal activity concentration (AC50) was 25.1 µM [falling, single point].

Take `CN(C)C(=O)N1CCC(C(=O)NCc2cccs2)CC1`: the AC50 is 25.1 µM [rising, single point].

As to `Cc1nnc(Oc2ccccc2F)c2ccccc12`, the AC50 is 0.0251 µM [falling, full curve, poor fit].

Regarding `O=C(Nc1cccc(F)c1)c1c(F)c(F)c(F)c(F)c1F`, the concentration at half-maximal activity (AC50) is 15.8 µM [falling, partial curve].

As for `CCc1c(C)nc(SC)n(CC#N)c1=O`, the AC50 is 10 µM [rising, single point].

Turning to `CC(=O)N1CCC2(CCCN(C(c3ccccc3)c3ccccc3)C2)CC1`, the AC50 is 12.6 µM [rising, partial curve].

In the case of `COc1ccc(-c2ccc(-c3noc(-c4ccccc4C)n3)c(OC)n2)cc1`, the AC50 is 12.6 µM [rising, partial curve].

In the case of `Oc1ccc2ccccc2c1/C=C\c1ccc2c(Br)cc(Br)c(O)c2n1`, the concentration at half-maximal activity (AC50) is 3.98 µM [rising, single point].

Consider `CCOC(=O)c1oc2ccc(Br)cc2c1NC(=O)CN1CCN(C)CC1`, for which the AC50 is 0.631 µM [rising, full curve].

On to `O=C(NCc1ccc2c(c1)OCO2)c1ccc2snnc2c1`, for which the AC50 was 0.00398 µM [falling, full curve, poor fit].

As for `O=C1c2ccccc2C(=O)N1CCCCSc1nnc(-c2ccc(OC(F)F)cc2)o1`, the AC50 is 3.98 µM [falling, full curve].

As for `Cn1nc(C(=O)NCc2cccnc2)c2ccccc2c1=O`, the concentration at half-maximal activity (AC50) is 25.1 µM [rising, single point].

With `CN(C)c1ccc(/C=c2\sc3n(c2=O)CCCN=3)cc1`, the AC50 was 5.01 µM [rising, partial curve].

`COc1ccc(-c2nnn(CC(=O)c3ccc4c(c3)OCCO4)n2)cc1OC`: the AC50 is 25.1 µM [rising, single point].

As to `O=c1c(-c2ccc(F)cc2)nc2cnc(N3CCNCC3)nc2n1-c1ccccc1`, the AC50 was 3.16 µM [rising, full curve].

`Cc1cccc(CNc2cc(-c3ccc(C(=O)N(C)C)cc3)ncn2)c1`: the AC50 was 3.98 µM [rising, full curve].

For the molecule `COC(=O)CC(=O)CSc1nc(C)cc(C)c1C#N`, the AC50 is 10 µM [rising, partial curve].

As to `COc1cc2ccc(=O)oc2cc1O`, the AC50 is 10 µM [rising, partial curve] and 12.6 µM [rising, partial curve].

Regarding `COc1ccc2cnn(Cc3ccccc3)c(=O)c2c1OC`, the concentration at half-maximal activity (AC50) was 10 µM [rising, single point].

With `Cc1ccc(-n2nnnc2SCC(=O)c2cc(C)n(CC3CCCO3)c2C)cc1` (centres undefined), the AC50 is 5.01 µM [rising, partial curve].

`Cc1ccc2c(c1)C(=O)[C@@]1(O)CCN(c3ccccc3)C1=N2`: the AC50 was 20 µM [falling, partial curve, poor fit].

Consider `CC(=O)c1ccc(-n2nncc2C)cc1`, for which the AC50 was 0.501 µM [falling, single point].

In the case of `Cn1nc(-c2ccc(Cl)cc2)c2cc(C(=O)NCCCN3CCOCC3)sc21`, the concentration at half-maximal activity (AC50) is 5.01 µM [rising, partial curve].

`COc1ccc2c(c1)C=CC1(O2)N(CCO)c2ccccc2C1(C)C` (centres undefined): the AC50 is 12.6 µM [rising, single point].

In the case of `COc1ccc(OC)c(S(=O)(=O)Nc2c(F)cccc2F)c1`, the AC50 is 0.00398 µM [falling, full curve, poor fit].

`O=C(CN1CCN(c2ccc(Cl)cc2)CC1)c1ccc2c(c1)OCO2`: the AC50 was 0.398 µM [falling, full curve].

Consider `Cc1cc(C)cc(C(=O)/C=C2\NC(=O)CS2)c1`, for which the half-maximal activity concentration (AC50) was 2.51 µM [falling, full curve, poor fit].

For `C#CCNc1c(C)c(C)nc2ncnn12`, the AC50 is 10 µM [rising, partial curve].

As for `CC(C)Cn1cnc2c(N)nc3ccccc3c21`, the AC50 is 0.501 µM [rising, partial curve, poor fit].

On to `COc1nc(NC(C)=O)nc(C)c1Br`, for which the AC50 was 12.6 µM [rising, partial curve].

On to `Cc1ccc(S(=O)(=O)N2CCN(C(=O)N3CCOCC3)C2C)cc1` (centres undefined), for which the AC50 was 3.16 µM [falling, single point].

As for `c1ccc2c(SCc3cn4cccnc4n3)ncnc2c1`, the half-maximal activity concentration (AC50) is 10 µM [rising, single point].

`CCOC(=O)c1c(-c2ccc(C)o2)csc1NC(=O)CSc1nnnn1-c1ccccc1`: the concentration at half-maximal activity (AC50) is 6.31 µM [rising, partial curve].

With `O=C(c1cccc(F)c1)N1CCN(c2cccc(Cl)c2)CC1`, the AC50 was 0.316 µM [rising, full curve, poor fit].

As to `CC(=O)N(c1ccc(Cl)cc1)c1c[nH]c2ccccc12`, the AC50 was 0.00316 µM [falling, full curve, poor fit].

As to `Cn1c(CSc2ccccc2)c(C#N)c2ccccc21`, the half-maximal activity concentration (AC50) is 31.6 µM [falling, single point].

As for `O=C(CN1CCC(n2nnc3cc(F)ccc32)CC1)NC1CCCCC1`, the AC50 is 10 µM [rising, single point].

`CCNc1ncc2nc(C)c(=O)n(CCc3ccccc3)c2n1`: the AC50 is 3.98 µM [rising, partial curve].

Turning to `O=C(c1ccccc1)N(Cc1cccs1)C1CCS(=O)(=O)C1` (centres undefined), the AC50 is 5.01 µM [falling, single point].

With `COCCn1c(=S)[nH]c2cc(OC)c(OC)cc2c1=O`, the AC50 was 12.6 µM [rising, single point].

With `CNc1nc(-c2cccnc2)nc2ccccc12`, the AC50 is 10 µM [rising, single point].

As to `c1ccc(CCc2ccccc2-c2nc(-c3cccnc3)no2)cc1`, the AC50 is 2.51 µM [rising, partial curve, poor fit].

In the case of `COc1ccccc1C1C(C(C)=O)=C(O)C(=O)N1CCc1ccccc1` (centres undefined), the AC50 was 1.26 µM [falling, full curve, poor fit].

As for `COc1ccc(-n2c(SCC(=O)Nc3cc(C)on3)nc3c(c2=O)SCC3)cc1`, the AC50 is 0.631 µM [falling, single point].

For `CN(C)c1ncc2nc(-c3cccc(C#N)c3)c(=O)n(C[C@H]3CCCO3)c2n1`, the concentration at half-maximal activity (AC50) was 6.31 µM [rising, partial curve].

For `Cc1noc(C)c1C(=O)Nc1sc2c(c1C(N)=O)CCC2`, the AC50 is 6.31 µM [rising, partial curve].

With `NC(=O)c1cc2n(n1)C(C(F)(F)F)CC(c1ccco1)N2` (centres undefined), the AC50 was 0.794 µM [falling, full curve, poor fit].

As to `COc1ccc(C(c2nnnn2Cc2cccs2)N2CCN(c3ccccc3F)CC2)cc1` (centres undefined), the AC50 is 10 µM [falling, partial curve].

Regarding `CCCn1c(SCC(=O)OCc2ccccc2)nc2c1c(=O)n(C)c(=O)n2C`, the AC50 was 7.94 µM [rising, partial curve].

Turning to `C=CCn1c(N)c(C(=O)OC(C)CC)c2nc3ccccc3nc21` (centres undefined), the concentration at half-maximal activity (AC50) is 10 µM [rising, partial curve].

Turning to `COc1cccc(-c2nnc(SCc3nc4ccccc4[nH]3)n2N)c1`, the AC50 was 15.8 µM [rising, single point].

As to `CCOC(=O)c1c(NC(C)=O)sc2c1CCCNC2=O`, the AC50 is 10 µM [rising, partial curve].

Turning to `O=C(CN1C(=O)c2cccc3cccc1c23)Nc1ccc2c(c1)OCO2`, the AC50 is 25.1 µM [rising, single point].
